Consider 65 compounds from PubChem BioAssay AID901 (National Center for Advancing Translational Sciences (NCATS), 2007).

Each structure is given as a SMILES string. This is one part of the list. The main result of the screen is listed elsewhere. These columns were measured beside it and carry no call. Most of these compounds were active or inconclusive in the main read-out, so they are no random draw. Words in brackets tell the shape of the fitted curve; partial curves, single points and poor fits give uncertain potencies.

This assay in a line: qHTS Assay for Identifying the Cell-Membrane Permeable IMPase Inhibitors. Particulars: CHO-M1 cells, IP1 accumulation, HTRF TR-FRET ratio; measured here: donor channel 620 nm AC50.
As a reminder, the AC50 is the concentration giving half of the maximal activity seen. For `CCCCNS(=O)(=O)c1ccc(NC(=O)c2c(-c3ccccc3)noc2C)cc1`, the AC50 was 3.55 µM [falling, full curve, poor fit].
As to `COc1ccc(Cl)cc1NC(=O)CSc1nc(-c2cccs2)cc(C(F)(F)F)n1`, the AC50 is 31.6 µM [rising, single point].
In the case of `O=C(Nc1ccc2oc(-c3cccnc3)nc2c1)c1ccccc1F` it was 35.5 µM [rising, single point]; in that of `COc1ccc(CCNC(=O)c2ccc(NS(=O)(=O)c3c(C)noc3C)cc2)cc1OC`, 0.00501 µM [rising, full curve].
In the case of `Cc1ccc(-c2c(C#N)c(N)n(-c3ccc(C)cc3)c(=O)c2C#N)cc1` it was 5.01 µM [falling, partial curve]; in that of `Cc1ccc(S(=O)(=O)N(CC(O)Cn2c3ccccc3c3ccccc32)c2cccc(C(=O)N(C)C)c2)cc1` (stereo not given), 7.08 µM [falling, full curve, poor fit].
`CCCc1cc(=O)[nH]c(SC(CC)C(=O)Nc2ccccc2C#N)n1` (stereo not given): the half-maximal activity concentration (AC50) is 2.51 µM [rising, single point].
As for `COc1cccc(NC(=O)CN2CCN(c3ccc(F)cc3)CC2)c1`, the figure is 0.501 µM [rising, full curve, poor fit]; as for `CCc1c(C(=O)O)[nH]c2ccc(Br)cc12`, 10 µM [rising, partial curve].
In the case of `O=C(c1cccc(S(=O)(=O)N2CCOCC2)c1)N1CCCCCC1` it was 31.6 µM [rising, partial curve, poor fit]; in that of `Cn1c(SC2C(=O)CC(C)(C)CC2=O)nnc1-c1ccco1`, 31.6 µM [rising, single point]; in that of `COc1cccc(-c2cc(C(F)(F)F)n3nc(N)nc3n2)c1`, 0.01 µM [falling, full curve].
As for `Cc1cccc(OC(C)c2ccnc3nc(/N=C/N(C)C)nn23)c1` (stereo not given), the figure is 0.0158 µM [rising, full curve, poor fit].
For the compound `CCOC(=O)CSc1nc(-c2ccc(OC)cc2)cc(C(F)(F)F)c1C#N`, the AC50 is 22.4 µM [rising, single point].
As for `Cc1nc2ccccc2nc1SCC(=O)c1ccccc1`, the figure is 20 µM [rising, partial curve]; as for `CCOc1ccc(Br)cc1S(=O)(=O)Nc1ccc(C(=O)OC(C)C(=O)N(C)c2ccccc2)cc1` (stereo not given), 0.00501 µM [falling, full curve, poor fit]; as for `CC1(C)CC(=O)N(CC(=O)O)c2ccccc2S1`, 0.01 µM [rising, full curve, poor fit].
As for `Cc1ccc(-n2c(=S)[nH]c3c(oc4ccccc43)c2=O)cc1C`, the figure is 12.6 µM [rising, partial curve]; as for `O=c1c2cccc3c2c(nn1-c1ccccc1)-c1ccccc1-3`, 15.8 µM [rising, single point]; as for `CC(=C/c1ccccc1)/C=C1/SC(N2CCOCC2)=NC1=O`, 25.1 µM [falling, single point].
In the case of `O=C(O)c1cccc(-n2cnnn2)c1` it was 7.94 µM [falling, full curve, poor fit]; in that of `Cc1ccc2c(c1)c(=O)c1ccccc1n2CCCC(=O)Nc1cc(Cl)ccc1C`, 5.62 µM [rising, single point]; in that of `Cc1nnc(NC(=O)c2c(F)cccc2F)s1`, 0.794 µM [falling, full curve, poor fit].
For `Cn1c(=O)[nH]c(=O)c2c1nc(Sc1ncccn1)n2CCCc1ccccc1`, the AC50 is 1 µM [falling, partial curve, poor fit].
Turning to `CCOc1cc2[nH]c(=O)n(CCc3ccc(OC)c(OC)c3)c(=O)c2cc1OCC`, the AC50 is 0.794 µM [rising, full curve, poor fit].
As for `CN1CCN(c2c(F)cc3c(=O)c(C(=O)O)cn4c3c2SCC4)CC1`, the figure is 15.8 µM [rising, partial curve].
In the case of `CCN1CCCC1CNC(=O)C1CCN(Cc2nc(-c3cccc(Br)c3)oc2C)CC1` (stereo not given) it was 1.26 µM [rising, full curve, poor fit]; in that of `O=C(CCCn1c(SCC(=O)NC2CCCCC2)nc2ccccc2c1=O)NCC1CCCO1` (stereo not given), 0.0316 µM [rising, full curve, poor fit]; in that of `COCCn1c(N)c(C(=O)OCc2ccccc2)c2nc3ccccc3nc21`, 7.94 µM [rising, partial curve, poor fit].
As for `Nc1ncnc2oc(-c3ccco3)c(-c3ccco3)c12`, the figure is 2 µM [rising, single point].
Turning to `COc1ccc2[nH]c(C)c(C(=O)CN3CCN(C/C=C/c4ccccc4)CC3)c2c1`, the AC50 was 0.631 µM [rising, full curve, poor fit].
Turning to `Cc1ccc(N2CC(C(=O)NCCC(C)C)CC2=O)cc1` (stereo not given), the AC50 was 0.1 µM [falling, full curve, poor fit].
Regarding `O=C(C1CCCCN1S(=O)(=O)c1ccccc1)N1CCN(C(c2ccccc2)c2ccccc2)CC1` (stereo not given), the AC50 is 0.01 µM [falling, full curve, poor fit].
As for `COC(=O)c1ccccc1NC(=O)C(C)Oc1ccccc1` (stereo not given), the figure is 1 µM [falling, full curve]; as for `CC(=O)c1cccc(N(C(=O)c2ccccn2)C(C(=O)NC2CCCCC2)c2cccs2)c1` (stereo not given), 0.251 µM [falling, full curve, poor fit]; as for `Cc1cc(N2CCN(Cc3ccc4c(c3)OCO4)CC2)n2ncnc2n1`, 0.2 µM [falling, full curve].
As for `COC(=O)c1c(CSc2cccc(C)c2)noc1C(=O)NCc1ccco1`, the figure is 5.01 µM [falling, full curve, poor fit].
On to `Cc1ccc(-c2nc3ncccn3c2Nc2ccc3c(c2)OCCO3)o1`, for which the AC50 was 2 µM [falling, full curve].
As for `COc1ccc(-n2c(SCC(N)=O)nnc2-c2cccnc2)cc1`, the figure is 1 µM [falling, full curve]; as for `O=S(=O)(c1cccs1)N1CN(Cc2ccccc2)c2nc3ccccc3nc21`, 0.398 µM [rising, full curve, poor fit]; as for `CCn1c(=O)cc(SCC(=O)NCc2cccnc2)c2ccccc21`, 7.94 µM [rising, partial curve, poor fit].
As for `CN(C)c1ccc(-c2nc3n(n2)C(c2cccnc2)C2=C(CC(C)(C)CC2=O)N3)cc1` (stereo not given), the figure is 10 µM [falling, partial curve, poor fit]; as for `CC(=O)C1=C(O)C(=O)N(c2ccc(C)cc2)C1c1ccccn1` (stereo not given), 12.6 µM [rising, partial curve]; as for `Cc1cccc(-c2nc(S(=O)(=O)c3ccc(Cl)cc3)c(N3CCCCCC3)o2)c1`, 0.794 µM [falling, full curve].
In the case of `O=C(c1cnc2n(c1=O)CCS2)N1CCN(c2ccc([N+](=O)[O-])cc2)CC1` it was 0.224 µM [falling, full curve, poor fit].
With `CON/C=C(\C=Nc1ccc(C(F)(F)F)cc1)c1ncc(C(F)(F)F)cc1Cl`, the AC50 is 5.01 µM [rising, single point].
Turning to `Cc1cc(=O)n2nc(N3CCC(C(=O)NCc4cccnc4)CC3)sc2n1`, the AC50 is 31.6 µM [rising, single point].
As for `C=CCN(CC=C)S(=O)(=O)c1ccc2nsnc2c1`, the figure is 3.98 µM [falling, partial curve]; as for `Cc1ccc(-n2nc(C)c3c2OC(N)=C(C#N)C3c2ccco2)cc1` (stereo not given), 31.6 µM [falling, single point].
Regarding `C=CCn1c(SCC(=O)Nc2sccc2C#N)nc2sc(C)c(C)c2c1=O`, the AC50 is 15.8 µM [rising, single point].
As for `CCOC(=O)/C(C#N)=C\c1c(C)cc(C)c(COC(C)=O)c1C`, the figure is 25.1 µM [falling, single point].
In the case of `COc1ccccc1NC(=S)NNC(=O)c1nn(C)cc1Cl` it was 0.01 µM [falling, full curve, poor fit].
With `FC(F)(F)c1cccc(-c2cc3ccccc3nc2N2CCCC2)c1`, the AC50 was 0.00501 µM [falling, full curve].
As for `COC(=O)Cc1c(C)c2c(O)cc(C)cc2oc1=O`, the figure is 12.6 µM [rising, partial curve].
Regarding `CCOC(=O)c1nn(-c2cccc(C)c2)c2nc(-c3ccccc3)c(C#N)c(=O)n12`, the AC50 is 12.6 µM [rising, single point].
As for `COc1ccccc1NC(=O)CSc1ncn[nH]1`, the figure is 0.00501 µM [falling, full curve, poor fit]; as for `CCS(=O)(=O)C(=C(Nc1ccc(OC)cc1)Nc1ccc(OC)cc1)S(=O)(=O)CC`, 1.26 µM [falling, full curve, poor fit].
As for `Cc1ccc(C(=O)NNC(=S)Nc2cccc3ccccc23)s1`, the figure is 3.16 µM [falling, single point].
As for `Cc1ccc(NC(=O)CSCC(=O)N2CCOCC2)cc1`, the figure is 0.158 µM [falling, full curve]; as for `O=C(O)c1cc(Nc2nc(N3CCOCC3)nc(N3CCOCC3)n2)ccc1Cl`, 0.251 µM [falling, single point].
Take `CCOC(=O)c1c(Nc2ccc(O)cc2)nnc(-c2ccccc2)c1-c1ccccc1`: the AC50 is 20 µM [rising, single point].
In the case of `COC(=O)c1ccc(C2c3c(oc4ccc(C)cc4c3=O)C(=O)N2Cc2ccc3c(c2)OCO3)cc1` (stereo not given) it was 1.26 µM [falling, partial curve, poor fit]; in that of `Cc1ccccc1Nc1c(N)c(=O)oc2ccccc12`, 0.708 µM [rising, full curve, poor fit].
In the case of `O=C1c2ccccc2C(Nc2ccc(F)cc2F)N1CCN1CCOCC1` (stereo not given) it was 15.8 µM [falling, partial curve, poor fit].
As for `Cc1cc(=O)oc2cc(NC(=O)CCC(=O)O)ccc12`, the figure is 5.01 µM [falling, single point].
